The list does not hold the whole screen: it gathers tests that were run many times, whatever their T/C, doses with no T/C, and many T/C values between a quarter and a half above the control. Further doses and runs are listed elsewhere. T/C: endpoint of the treated group in % of that of the vehicle group. Some doses have a count of surviving animals in place of a T/C: the source holds a T/C of zero for them, seemingly a mark for toxic or unscored doses. Some survivor counts are full or nearly so, which does not show that the dose was tolerated: the source hardly ever lists a survival T/C far under the control, and the zero likely stands for such cases as well. Survivors were counted at the toxicity check, usually on the fifth day, unless a day is given; later deaths do not show. Schedules are NCI's codes, read here as Q, the interval in days (D) or hours (H), X, the number of doses. For survival time, this PubChem deposit counts one and a half times the control or more as active, and values a quarter to a half above the control carry no call in these data; other NCI protocols may use other cut-offs. Some T/C values carry the count of animals alive at the toxicity check (mostly the fifth day); without a count, all were alive then.
System: BDF1 mice, B16 melanoma ip, median survival T/C
Test: NCI In Vivo Anticancer Drug Screen. Data for tumor model B16 Melanoma (intraperitoneal) in B6D2F1 (BDF1) mice
Conditions: T/C endpoint: median survival time, higher T/C = longer survival
Summary of the method: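 Mice with transplantable tumors; drug vs vehicle groups; endpoint survival or tumor size; value = T/C.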

## CC(C)NC(=O)OCc1c(COC(=O)NC(C)C)c(-c2ccc(Cl)c(Cl)c2)n2c1CCC2
dose: 2.34 mg/kg/injection, schedule: Q01DX009 (ip), vehicle: saline with Tween-80
  T/C: 145 % of control
dose: 4.69 mg/kg/injection, schedule: Q01DX009 (ip), vehicle: other
  T/C: 140 % of control
dose: 5.18 mg/kg/injection, schedule: Q01DX009 (ip), vehicle: distilled water + Tween-80
  T/C: 129 % of control [9 of 10 alive]
dose: 6.25 mg/kg/injection, schedule: Q01DX009 (ip), vehicle: distilled water + Tween-80
  T/C: 146 % of control [9 of 10 alive]
dose: 8.64 mg/kg/injection, schedule: Q01DX009 (ip), vehicle: distilled water + Tween-80
  T/C: 148 % of control
dose: 24.0 mg/kg/injection, schedule: Q01DX009 (ip), vehicle: distilled water + Tween-80
  T/C: 148 % of control
dose: 37.5 mg/kg/injection, schedule: Q01DX009 (ip), vehicle: other
  survivor count: 10 of 10
dose: 75.0 mg/kg/injection, schedule: Q01DX009 (ip), vehicle: other
  survivor count: 9 of 10

## CCOc1ccc(N2C(=O)CSC2=S)cc1
dose: 100.0 mg/kg/injection, schedule: Q01DX009 (ip), vehicle: Klucel (hydroxypropylcellulose) (HPC)
  survivor count: 10 of 10
dose: 200.0 mg/kg/injection, schedule: Q01DX009 (ip), vehicle: Klucel (hydroxypropylcellulose) (HPC)
  survivor count: 10 of 10
dose: 400.0 mg/kg/injection, schedule: Q01DX009 (ip), vehicle: Klucel (hydroxypropylcellulose) (HPC)
  survivor count: 10 of 10

## NC(Cc1c[nH]c2ccc(N(CCCl)CCCl)cc12)C(=O)O (configuration not stated)
dose: 0.13 mg/kg/injection, schedule: Q01DX009 (ip), vehicle: saline with Tween-80
  T/C: 135 % of control
dose: 4.0 mg/kg/injection, schedule: Q01DX009 (ip), vehicle: saline with Tween-80
  survivor count: 6 of 6

## CC1=C2CC3CCC(C)C2(CC1)C3(C)C (configuration not stated)
dose: 100.0 mg/kg/injection, schedule: Q04DX003 (ip), vehicle: saline with Tween-80
  survivor count: 10 of 10
dose: 200.0 mg/kg/injection, schedule: Q04DX003 (ip), vehicle: saline with Tween-80
  survivor count: 10 of 10
dose: 400.0 mg/kg/injection, schedule: Q04DX003 (ip), vehicle: saline with Tween-80
  survivor count: 5 of 10

## O=C(Nc1ccccc1C(=O)O)c1cc([N+](=O)[O-])cc([N+](=O)[O-])c1
dose: 400.0 mg/kg/injection, schedule: Q01DX009 (ip), vehicle: saline with Tween-80
  survivor count: 4 of 10

## CCC[CH2][Sn]1([CH2]CCC)[S]CC[N]1S(=O)(=O)c1ccc(C)cc1
dose: 25.0 mg/kg/injection, schedule: Q01DX009 (ip), vehicle: saline with Tween-80
  survivor count: 9 of 10
dose: 50.0 mg/kg/injection, schedule: Q01DX009 (ip), vehicle: saline with Tween-80
  survivor count: 0 of 10

## CS(=O)(=O)OCCN(CCOS(C)(=O)=O)c1ccc(N=O)cc1
dose: 0.05 mg/kg/injection, schedule: Q01DX009 (ip), vehicle: saline
  T/C: 142 % of control
dose: 0.13 mg/kg/injection, schedule: Q01DX009 (ip), vehicle: saline, evaluated on day 45
  T/C: 127 % of control
dose: 0.13 mg/kg/injection, schedule: Q01DX009 (ip), vehicle: saline, evaluated on day 60
  T/C: 131 % of control
dose: 0.19 mg/kg/injection, schedule: Q01DX009 (ip), vehicle: saline with Tween-80
  T/C: 140 % of control
dose: 0.2 mg/kg/injection, schedule: Q01DX009 (ip), vehicle: saline
  T/C: 126 % of control
dose: 0.3 mg/kg/injection, schedule: Q01DX009 (ip), vehicle: saline
  T/C: 141 % of control
dose: 0.37 mg/kg/injection, schedule: Q01DX009 (ip), vehicle: saline with Tween-80
  survivor count: 10 of 10
dose: 0.75 mg/kg/injection, schedule: Q01DX009 (ip), vehicle: saline with Tween-80
  survivor count: 10 of 10
dose: 0.75 mg/kg/injection, schedule: Q01DX009 (ip), vehicle: saline
  survivor count: 5 of 6
dose: 1.5 mg/kg/injection, schedule: Q01DX009 (ip), vehicle: saline
  survivor count: 3 of 6
dose: 3.0 mg/kg/injection, schedule: Q01DX009 (ip), vehicle: saline
  survivor count: 0 of 6
dose: 6.25 mg/kg/injection, schedule: Q01DX009 (ip), vehicle: saline
  survivor count: 6 of 6
dose: 12.5 mg/kg/injection, schedule: Q01DX009 (ip), vehicle: saline
  survivor count: 2 of 6
dose: 25.0 mg/kg/injection, schedule: Q01DX009 (ip), vehicle: saline
  survivor count: 0 of 6
dose: 100.0 mg/kg/injection, schedule: Q01DX009 (ip), vehicle: saline
  survivor count: 0 of 6
dose: 200.0 mg/kg/injection, schedule: Q01DX009 (ip), vehicle: saline
  survivor count: 0 of 6
dose: 400.0 mg/kg/injection, schedule: Q01DX009 (ip), vehicle: saline
  survivor count: 0 of 6

## COc1ccc(C2=CN(S(=O)(=O)c3ccc(C)cc3)CCc3ccccc32)cc1
dose: 200.0 mg/kg/injection, schedule: Q04DX003 (ip), vehicle: Klucel (hydroxypropylcellulose) (HPC)
  survivor count: 8 of 10

Source: PubChem BioAssay AID192 (DTP/NCI, 2004)
